{
  "source": "patent US6946456B2",
  "about": "“Methods for treating cell proliferative disorders and viral infections” (Sloan-Kettering Institute for Cancer Research, priority 2000, dated 2005)",
  "key": {"[1]": {"test_system": "Rb-wild type cells (MCF7 and Colo 205)", "assay": "Cell cycle analysis by flow cytometry of ethidium bromide-stained nuclei, Rb-wild type tumor cell lines", "format": "cell-based, human", "conditions": "12 tumor cell lines examined; FIG. 1A", "experimental": "(§1) The human breast cancer cell lines MB-MDA 468, MCF7 and BT-549 and the colon carcinoma cell line, Colo 205, were obtained from ATCC. Breast cell lines were maintained in DME-F12 media and Colo 205 cells in RPMI; both media were supplemented with 5% fetal calf serum (BRL), 2 mM glutamine and 50 u/ml each of penicillin and streptomycin. All cells were incubated at 37° C. in 5% C02. Cells were treated for 24 hours with 250 ng/ml herbimycin A (Gibco) dissolved in DMSO or 435 nM of radicicol (Sigma). After treatment the […] and analyzed by flow cytometry. Nuclei were isolated for flow cytometry assays stained with ethidium bromide and analyzed using a Becton Dickinson fluorescence-activated cell sorter. Statistical data was obtained using Multicycle program software."}, "[2]": {"test_system": "tumor cell lines with mutated Rb (MB-MDA 468, BT-549, DU145 and DU4475)", "assay": "Cell cycle analysis by flow cytometry of ethidium bromide-stained nuclei, tumor cell lines with mutated Rb", "format": "cell-based, human", "conditions": "Rb-dependent", "experimental": "as §1"}},
  "note": "At least one compound was matched to its structure with a doubt left.",
  "data": [
    {"smiles": "COC1=C2C[C@@H](C)C[C@H](OC)[C@H](O)[C@@H](C)/C=C(\\C)[C@H](OC(N)=O)[C@@H](OC)/C=C\\C=C(/C)C(=O)NC(=CC1=O)C2=O", "note": "[GM, geldanamycin]", "values": [
      {"measurement": "cell cycle effect in tumor cell lines", "setting": "[1]", "value": "growth arrest in G1"},
      {"measurement": "cell cycle profiles and mitotic phenotype compared with HA", "setting": "[2]", "value": "same Rb-dependent cell cycle profiles and mitotic phenotype as observed with HA"}
    ]}
  ]
}
